PubChem BioAssay AID1053208 – Peter MacCallum Cancer Centre, 2014

- Screen: 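Find knock-downs that sensitise mouse osteosarcoma cells to doxorubicin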 (primary screen)
- Cells: mouse osteosarcoma cells, early-passage culture from an engineered mouse model of fibroblastic bone tumour
- Reagents: siRNA pool against mouse genes, 40 nM
- Timing: about 120 h (48 h before drug, then 72 h with drug)
- Challenge: doxorubicin 100 nM for 72 h, roughly 30-40% inhibitory dose
- Measured: 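Viability read as ATP luminescence after 72 h of 100 nM doxorubicin or none, duplicate wells averaged, scaled to non-targeting siRNA, then expressed as robust z-scores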
- Reading the numbers: viability z-score with doxorubicin and doxorubicin viability vs non-targeting: higher = more viable cells under doxorubicin; viability z-score without drug: higher = more viable cells with knock-down alone; z-score of drug to no-drug ratio: higher = less drug sensitisation by knock-down
- Active means: 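Called active if knock-down leaves viability unchanged without drug (z within -2 to 2) but lowers it with doxorubicin (z at or under -2)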
This is a random part of about 17,000 reagents tested. Over the whole deposit, 788 (4.7%) got an active call. 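Calls rest on z-score classes alone; an extra cut-off of viability at most 70% of control was not applied to them.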

gene knocked down	combined z-score class	viability z-score with doxorubicin	viability z-score without drug	z-score of drug to no-drug ratio	doxorubicin viability vs non-targeting	outcome
Icam2	no change with or without drug	0.56	-0.84	1.35	0.99	inactive
Btla	no change with or without drug	-0.45	0.51	-0.67	0.9	inactive
Try4	no change with or without drug	-0.45	0	-0.34	0.9	inactive
Vps52	no change with or without drug	-0.67	0.51	-0.9	0.88	inactive
Zfp53	no change with or without drug	0.9	0.34	0.79	1.02	inactive
Sat1	no change with or without drug	-0.11	1.18	-0.79	0.93	inactive
Cnot8	no change with or without drug	0.45	0	0.56	0.98	inactive
Nr1i2	no change with or without drug	1.35	1.85	0.22	1.06	inactive
Rhpn2	no change with or without drug	-0.67	-1.18	0.22	0.88	inactive
Naa60	no change with or without drug	-0.34	0.84	-0.79	0.91	inactive
Tram1l1	no change with or without drug	0.45	-1.52	1.8	0.98	inactive
Vcp	low cell count with doxorubicin only	-5.06	-1.52	-4.61	0.49	active
Kctd10	no change with or without drug	-1.91	-0.17	-1.8	0.77	inactive
Foxn4	no change with or without drug	-0.67	-0.67	-0.11	0.88	inactive
Eif3e	low cell count with and without drug	-3.37	-3.2	-1.57	0.64	inactive
Spp2	no change with or without drug	1.91	0.51	1.69	1.11	inactive
Or2w6	no change with or without drug	1.01	0.17	1.01	1.03	inactive
Gstt2	no change with or without drug	0.45	0.34	0.34	0.98	inactive

Part of the list above, set out differently.
| gene knocked down | combined z-score class | viability z-score with doxorubicin | viability z-score without drug | z-score of drug to no-drug ratio | doxorubicin viability vs non-targeting | outcome |
| --- | --- | --- | --- | --- | --- | --- |
| Kctd10 | no change with or without drug | -1.91 | -0.17 | -1.8 | 0.77 | inactive |
| Foxn4 | no change with or without drug | -0.67 | -0.67 | -0.11 | 0.88 | inactive |
| Eif3e | low cell count with and without drug | -3.37 | -3.2 | -1.57 | 0.64 | inactive |
| Spp2 | no change with or without drug | 1.91 | 0.51 | 1.69 | 1.11 | inactive |
| Or2w6 | no change with or without drug | 1.01 | 0.17 | 1.01 | 1.03 | inactive |

Continued.
gene knocked down	combined z-score class	viability z-score with doxorubicin	viability z-score without drug	z-score of drug to no-drug ratio	doxorubicin viability vs non-targeting	outcome
Rnd3	no change with or without drug	-0.22	0.51	-0.45	0.92	inactive
Or10n1	no change with or without drug	1.12	0.51	0.9	1.04	inactive
Marcksl1	no change with or without drug	-1.57	0.84	-2.02	0.8	inactive
Il13	no change with or without drug	1.57	0.84	1.12	1.08	inactive
Ap1m1	no change with or without drug	-0.45	1.01	-1.01	0.9	inactive
Fgd5	no change with or without drug	-0.45	0.34	-0.56	0.9	inactive
Ube2j2	no change with or without drug	0	0.17	0	0.94	inactive
Adh1	high cell count without drug only	0.79	2.53	-0.67	1.01	inactive
Ctnna3	no change with or without drug	0.79	0.51	0.56	1.01	inactive
Vmn1r59	no change with or without drug	-0.67	-0.34	-0.34	0.88	inactive
Lnx2	no change with or without drug	-1.12	0.17	-1.12	0.84	inactive
Ehd4	no change with or without drug	0	1.18	-0.67	0.94	inactive
Pi4k2a	no change with or without drug	0	-1.85	1.57	0.94	inactive
Gabrb3	no change with or without drug	-0.79	-0.17	-0.56	0.87	inactive
Cdx2	no change with or without drug	0.45	1.01	-0.11	0.98	inactive
Actbl2	no change with or without drug	0.79	1.18	0.11	1.01	inactive
Adgrg7	no change with or without drug	-0.79	-1.01	0	0.87	inactive
Bmpr1a	no change with or without drug	-0.67	-0.51	-0.22	0.88	inactive
D130012P04Rik	no change with or without drug	0.67	-0.84	1.46	1	inactive
Stra8	high cell count with doxorubicin only	2.25	0.51	2.02	1.14	inactive
Arel1	high cell count with and without drug	2.25	2.19	0.9	1.14	inactive
Pisd	no change with or without drug	-0.34	0.84	-0.79	0.91	inactive
Amotl2	no change with or without drug	0.56	-0.34	0.9	0.99	inactive
Ccdc9	no change with or without drug	-1.01	0.17	-1.01	0.85	inactive
Adam33	no change with or without drug	0.45	0.84	0	0.98	inactive
Ctrb1	no change with or without drug	-0.45	1.52	-1.24	0.9	inactive
Itga4	no change with or without drug	-0.45	-1.01	0.34	0.9	inactive
Or2ak6	no change with or without drug	0	-1.85	1.57	0.94	inactive
Ugt3a2	no change with or without drug	-1.35	0	-1.35	0.82	inactive
Scgb3a2	no change with or without drug	0.45	-0.51	1.01	0.98	inactive
Nagpa	high cell count with and without drug	2.25	3.2	0.22	1.14	inactive
Pde4c	no change with or without drug	0.45	-0.84	1.24	0.98	inactive
